In paper PMC12431657, “Discovery and mechanistic insights of dibenzoylmethane as a broad spectrum inhibitor of coronavirus” (PLOS Pathogens, 2025):
Where a name gives a salt, the structure may show the parent alone. Read-outs that look alike come from different tables or passages of the source. About 95 (3%) of roughly 3,300 compounds showed an effect of 50% or more. The list shows a part of the results.

System: HCoV-229E
Design: species or system Huh-7; HTS, protection from HCoV-229E induced cell death, luminescent cell viability (CellCounting-Lite 2.0), inhibition rate
Details: 24 h post infection, 1 h compound pre-incubation, 10 µM, inhibitor

SMILES	229E Inhibition rate [%]	229E Inhibition rate (229E Inhibition rate, 24 h) [%]
CC(=O)O[C@H](CC=C(C)C)C1=CC(=O)c2c(O)ccc(O)c2C1=O [Acetylshikonin]	4	–
Cn1c(=O)c2nc[nH]c2n(C)c1=O [Theophylline]	6	–
COc1ccc(C=O)cc1 [4-Methoxybenzaldehyde]	9.5	–
O=C1c2c(O)cccc2[C@@H]([C@@H]2O[C@H](CO)[C@@H](O)[C@H](O)[C@H]2O)c2cc(CO)cc(O)c21 [Aloin B]	4.8	–
C/C=C/C(=O)C1=C(C)C=CCC1(C)C [Damascenone]	18.4	–
COC(=O)c1cc(O)c(O)c(O)c1 [Methyl gallate]	24.6	–
C[C@@H]1CC[C@]2(C(=O)O)CC[C@]3(C)C(=CC[C@@H]4[C@@]5(C)CC[C@H](O[C@@H]6OC[C@H](O)[C@H](O)[C@H]6O)C(C)(C)[C@@H]5CC[C@]43C)[C@@H]2[C@]1(C)O [Ziyuglycoside II]	3.2	–
COc1cc(C(=O)O)cc(OC)c1O [Syringic acid]	9.1	–
COc1cc(CCC(=O)CC(=O)CCc2ccc(O)c(OC)c2)ccc1O [Tetrahydrocurcumin]	14.4	–
C[N+](C)(C)C[C@H](O)CC(=O)[O-] [L-Carnitine]	–	12.8
O=C1C[C@@H](c2ccc(O)c(O)c2)Oc2cc(O[C@@H]3O[C@H](CO)[C@@H](O)[C@H](O)[C@H]3O)cc(O)c21 [Eriodictyol-7-O-glucoside]	45.6	–
COC1[C@@H](O)[C@H](O)C(O)[C@H](O)[C@H]1O (stereo partly shown) [Sequoyitol]	5.9	–
C[C@@H]1CC[C@@]2(OC1)O[C@H]1C[C@H]3[C@@H]4CC=C5C[C@@H](O)C[C@@H](O[C@@H]6O[C@H](C)[C@H](O)[C@H](O[C@@H]7OC[C@@H](O)[C@H](O)[C@H]7O)[C@H]6O[C@@H]6O[C@@H](C)[C@H](O)[C@@H](O)[C@H]6O)[C@]5(C)[C@H]4CC[C@]3(C)[C@H]1[C@@H]2C [Ophiopogonin D]	–	50.3
COc1ccc([C@@H](O)CNC(=O)/C=C/c2ccccc2)cc1 (racemic) [Aegeline]	0	–
CCCCCCC(CCCCCCCCCC(=O)O)C(=O)OCC(O)CO (stereo not shown) [Caprylic/Capric Triglyceride]	35.8	–
CCCCCCCCCCCCCCC(O)C(=O)O (stereo not shown) [2-Hydroxypalmitic acid]	17.2	–
O=c1cc(-c2ccc(O)cc2)oc2cc(O)cc(O)c12 [Apigenin]	55.5	–
O=C(O)CCCCCCCCCCCCC(=O)O [Tetradecanedioic acid]	8	–
C[Se]CC[C@H](N)C(=O)O [Selenomethionine]	–	11.2
C=C(C)C(=O)Cc1c(OC)ccc2ccc(=O)oc12 [Murrayone]	14	–
O=c1cc(-c2ccccc2)oc2cc(O[C@@H]3O[C@H](CO)[C@@H](O)[C@H](O)[C@H]3O)c(O)c(O)c12 [Oroxin A]	34.7	–
NC(Cc1cccc(O)c1)C(=O)O (racemic) [DL-m-Tyrosine]	6.4	–

SMILES	229E Inhibition rate [%]	229E Inhibition rate (229E Inhibition rate, 24 h) [%]
COc1cc2c(cc1OC)[C@H](C)NCC2 [Salsolidine]	0	–
O=Cc1cccc(O)c1 [3-Hydroxybenzaldehyde]	10.5	–
COc1c(CC=C(C)C)c(O)cc2oc(=O)c3c4ccc(O)cc4oc3c12 [Neoglycyrol]	90.8	–
NCCc1cc(O)c(O)c(O)c1 [5-Hydroxydopamine hydrochloride]	11.7	–
C/C=C/C=C/C(=O)O [Sorbic acid]	–	16.1
C=C[C@H]1[C@H](O[C@@H]2O[C@H](CO)[C@@H](O)[C@H](O)[C@H]2O)OC=C(C(=O)OC)[C@H]1CC=O [Secologanin]	9.8	–
CC1(C)CC[C@]2(C(=O)O)CC[C@]3(C)C(=CC[C@@H]4[C@@]5(C)CC[C@H](O[C@@H]6OC[C@H](O)[C@H](O)[C@H]6O[C@@H]6O[C@H](CO)[C@@H](O)[C@H](O)[C@H]6O)[C@@](C)(CO)[C@@H]5CC[C@]43C)[C@@H]2C1 [Cauloside C]	5.7	–
C/C=C(/C)C(=O)O [Angelic acid]	7.1	–
Oc1ccc(CC2NCCc3cc(O)c(O)cc32)cc1 (stereo not shown) [Higenamine (hydrochloride)]	9.5	–
CC1(C)CC[C@]2(C(=O)O)[C@H](O)C[C@]3(C)C(=CC[C@@H]4[C@@]5(C)CC[C@H](O)C(C)(C)[C@@H]5CC[C@]43C)[C@@H]2C1 [Echinocystic acid]	7.2	–
O=C(N[C@H](COC(=O)[C@H](Cc1ccccc1)NC(=O)c1ccccc1)Cc1ccccc1)c1ccccc1 [Asperphenamate]	18	–
CC1=CCC(O)(C(C)C)CC1 (stereo not shown) [Terpinen-4-ol]	10.2	–
Nc1cc(C(=O)O)ccc1O [3-Amino-4-hydroxybenzoic acid]	0	–
COc1ccc(C=O)c(O)c1 [2-Hydroxy-4-methoxybenzaldehyde]	9.1	–
CC(C)(O)[C@@H]1Cc2cc3ccc(=O)oc3cc2O1 [S-(+)-Marmesin]	17.5	–
C=C1CC[C@]2(C)CC[C@]3(C)[C@H](CC[C@@H]4[C@@]5(C)CC[C@H](O)C(C)(C)[C@@H]5CC[C@]43C)[C@H]2[C@@H]1C [Taraxasterol]	12.5	–
CCCCCCCC(=O)O[C@H](CC(=O)[O-])C[N+](C)(C)C [L-Octanoylcarnitine]	0	–
O=C(O)c1c[nH]c2ccccc12 [Indole-3-carboxylic acid]	22.5	–
O=C(O[C@@H]1Cc2c(O)cc(O)cc2O[C@@H]1c1cc(=O)c(O)c2c(O)c(O)cc([C@H]3Oc4cc(O)cc(O)c4C[C@H]3O)c2c1)c1cc(O)c(O)c(O)c1 [Theaflavin-3-gallate]	–	39.8
COc1cc(-c2cc(=O)c3c(O)c(OC)c(O)cc3o2)cc(O)c1OC [5,7,3'-Trihydroxy-6,4',5'-trimethoxyflavone]	0	–
Nc1nc(=O)c2nc(CNc3ccc(C(=O)N[C@@H](CCC(=O)O)C(=O)O)cc3)cnc2[nH]1 [Folic acid]	21.7	–
C=CC[S+]([O-])C[C@H](N)C(=O)O (stereo partly shown) [Alliin]	4.1	–

Reformatted as a markdown table: 13 of the compounds above

| SMILES | 229E Inhibition rate [%] | 229E Inhibition rate (229E Inhibition rate, 24 h) [%] |
| --- | --- | --- |
| COc1c(CC=C(C)C)c(O)cc2oc(=O)c3c4ccc(O)cc4oc3c12 [Neoglycyrol] | 90.8 | – |
| NCCc1cc(O)c(O)c(O)c1 [5-Hydroxydopamine hydrochloride] | 11.7 | – |
| CC1(C)CC[C@]2(C(=O)O)CC[C@]3(C)C(=CC[C@@H]4[C@@]5(C)CC[C@H](O[C@@H]6OC[C@H](O)[C@H](O)[C@H]6O[C@@H]6O[C@H](CO)[C@@H](O)[C@H](O)[C@H]6O)[C@@](C)(CO)[C@@H]5CC[C@]43C)[C@@H]2C1 [Cauloside C] | 5.7 | – |
| C/C=C(/C)C(=O)O [Angelic acid] | 7.1 | – |
| Oc1ccc(CC2NCCc3cc(O)c(O)cc32)cc1 (stereo not shown) [Higenamine (hydrochloride)] | 9.5 | – |
| O=C(N[C@H](COC(=O)[C@H](Cc1ccccc1)NC(=O)c1ccccc1)Cc1ccccc1)c1ccccc1 [Asperphenamate] | 18 | – |
| CC1=CCC(O)(C(C)C)CC1 (stereo not shown) [Terpinen-4-ol] | 10.2 | – |
| COc1ccc(C=O)c(O)c1 [2-Hydroxy-4-methoxybenzaldehyde] | 9.1 | – |
| CC(C)(O)[C@@H]1Cc2cc3ccc(=O)oc3cc2O1 [S-(+)-Marmesin] | 17.5 | – |
| C=C1CC[C@]2(C)CC[C@]3(C)[C@H](CC[C@@H]4[C@@]5(C)CC[C@H](O)C(C)(C)[C@@H]5CC[C@]43C)[C@H]2[C@@H]1C [Taraxasterol] | 12.5 | – |
| CCCCCCCC(=O)O[C@H](CC(=O)[O-])C[N+](C)(C)C [L-Octanoylcarnitine] | 0 | – |
| O=C(O)c1c[nH]c2ccccc12 [Indole-3-carboxylic acid] | 22.5 | – |
| COc1cc(-c2cc(=O)c3c(O)c(OC)c(O)cc3o2)cc(O)c1OC [5,7,3'-Trihydroxy-6,4',5'-trimethoxyflavone] | 0 | – |

The list continues:

SMILES	229E Inhibition rate [%]	229E Inhibition rate (229E Inhibition rate, 24 h) [%]
CC(=O)N[C@@H](CC(C)C)C(=O)O [N-Acetyl-L-leucine]	5.7	–
OCC1CCCCO1 (stereo not shown) [2-Hydroxymethyltetrahydropyran]	4.6	–
COc1ccc(-c2cc(=O)c3c(O)cc(O)cc3o2)cc1O [Diosmetin]	0	–
CCCCCCCCCC(C)O (stereo not shown) [2-Undecanol]	13	–
CC1(C)Oc2cc3oc(=O)ccc3cc2CC1O (racemic) [(±)-Decursinol]	14.2	–
CC(N)=O [Acetamide]	12.5	–
COc1cc2c(cc1CC=C(C)C)C(=O)C[C@@H](c1ccc(O)cc1)O2 [Bavachinin]	36.7	–
CC(C)=CC[C@]12Oc3cc(O)c([C@H]4C=C(C)C[C@H](c5ccc(O)cc5O)[C@H]4C(=O)c4ccc(O)cc4O)c(O)c3C(=O)[C@@]1(O)Oc1cc(O)ccc12 [Sanggenon C]	43.3	–
C/C=C(/C)C(=O)O[C@H]1[C@H](OC(C)=O)[C@@]2(CO)C(CC1(C)C)C1=CCC3[C@@]4(C)CC[C@H](O[C@@H]5O[C@H](C(=O)O)[C@@H](O[C@@H]6O[C@H](CO)[C@@H](O)[C@H](O)[C@H]6O)[C@H](O)[C@H]5O[C@@H]5O[C@H](CO)[C@@H](O)[C@H](O)[C@H]5O)[C@](C)(CO)C4CC[C@@]3(C)[C@]1(C)C[C@H]2O (stereo partly shown) [Saponins]	3.2	–
C=CCc1ccc(OC(C)=O)c(OC)c1 [Eugenol acetate]	9.1	–
CC1(C)COC(=O)C1O (racemic) [DL-Pantolactone]	0	–
COc1cc2ccc(=O)oc2c(OC)c1OC [Dimethylfraxetin]	11.8	–
CC(C)=CCCC(C)CCO (stereo not shown) [Citronellol]	12.8	–
CC1(C)CCC[C@](C)([C@H]2CC[C@]3(C)[C@@H]2[C@H](O)C[C@@H]2[C@@]4(C)CC[C@H](O)C(C)(C)[C@@H]4[C@@H](O)C[C@]23C)O1 [Panaxatriol]	15.9	–
CC(C)(O[C@@H]1O[C@H](CO)[C@@H](O)[C@H](O)[C@H]1O)[C@@H]1CC[C@](O)(CO)[C@H]2CC(=O)[C@@](C)(O)[C@@H]2C1 [Atractyloside A]	20	–
O=c1cc(-c2ccccc2)oc2cc(O)cc(O[C@@H]3O[C@H](CO)[C@@H](O)[C@H](O)[C@H]3O)c12 [Toringin]	4.4	–
C=C(C)[C@H]1Cc2c(ccc3c2O[C@@H]2COc4cc(OC)c(OC)cc4[C@@H]2C3=O)O1 [Rotenone]	2.8	–
O=C1C[C@@H](c2ccc(O[C@@H]3O[C@H](CO)[C@@H](O)[C@H](O)[C@H]3O[C@H]3OC[C@@](O)(CO)[C@@H]3O)cc2)Oc2cc(O)ccc21 [Liquiritin apioside]	16.3	–
CC(=O)O[C@H]1C[C@H](O[C@H]2[C@@H](O)C[C@H](O[C@H]3[C@@H](O)C[C@H](O[C@H]4CC[C@@]5(C)[C@H](CC[C@@H]6[C@@H]5C[C@@H](O)[C@]5(C)[C@@H](C7=CC(=O)OC7)CC[C@]65O)C4)O[C@@H]3C)O[C@@H]2C)O[C@H](C)[C@H]1O[C@@H]1O[C@H](CO)[C@@H](O)[C@H](O)[C@H]1O [Lanatoside C]	19.6	–
CCC/C=C1\OC(=O)C2=C1CC[C@@H](O)[C@H]2O [Senkyunolide H]	47.8	–
